Some of the results follow.
These targets were tested with C1=CC2=NC=CN=C2C=C1/C=C/3\C(=O)NC(=O)S3 (assay: log2 fold change, soluble protein after heating vs DMSO (PISA); higher = thermal stabilisation; K562 cells, 10 uM, 30 min; active = over 0.2 and 3.5 SD of the protein, either way, in both replicates (recomputed)).
Summary of the method: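 Thermal stability values are relative to control samples and come from duplicates. They are expressed as log2 fold changes. For measurement, K562 cells (2×10^6 cells/mL) received 10 μM compound for 30 min, and aliquots were heated for 3 min over 48°C-58°C, pooled, and extracted at 4°C in PBS with 0.5% NP-40. Soluble protein, the supernatant after 21,000xg for 90 min, was quantified by TMTpro 16plex LC-MS/MS with equalised channel sums.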

Amino acid sequences for entries named in this document (tags omitted). A change or cut given only in a name is not applied to a line headed by its entry.
UniProt P62312: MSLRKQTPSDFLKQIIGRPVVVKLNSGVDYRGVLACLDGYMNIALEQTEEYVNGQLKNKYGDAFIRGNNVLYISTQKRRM
UniProt O60476: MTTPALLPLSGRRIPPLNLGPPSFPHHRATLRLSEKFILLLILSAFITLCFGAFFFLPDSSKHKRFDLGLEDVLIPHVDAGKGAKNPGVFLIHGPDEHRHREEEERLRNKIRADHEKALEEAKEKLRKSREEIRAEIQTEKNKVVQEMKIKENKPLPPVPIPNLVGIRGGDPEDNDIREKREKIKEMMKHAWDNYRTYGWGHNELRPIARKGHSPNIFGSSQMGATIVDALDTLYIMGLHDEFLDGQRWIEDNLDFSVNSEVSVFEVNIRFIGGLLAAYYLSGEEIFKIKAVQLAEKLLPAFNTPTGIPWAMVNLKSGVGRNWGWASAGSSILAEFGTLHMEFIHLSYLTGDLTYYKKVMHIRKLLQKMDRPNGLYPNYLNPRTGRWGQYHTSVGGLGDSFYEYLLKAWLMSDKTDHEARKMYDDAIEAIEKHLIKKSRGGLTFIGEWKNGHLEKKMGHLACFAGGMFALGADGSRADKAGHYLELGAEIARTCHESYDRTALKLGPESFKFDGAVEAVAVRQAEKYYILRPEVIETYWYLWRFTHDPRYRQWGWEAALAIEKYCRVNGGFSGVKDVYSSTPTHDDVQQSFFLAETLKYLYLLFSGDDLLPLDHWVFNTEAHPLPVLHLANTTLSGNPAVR
UniProt P46734: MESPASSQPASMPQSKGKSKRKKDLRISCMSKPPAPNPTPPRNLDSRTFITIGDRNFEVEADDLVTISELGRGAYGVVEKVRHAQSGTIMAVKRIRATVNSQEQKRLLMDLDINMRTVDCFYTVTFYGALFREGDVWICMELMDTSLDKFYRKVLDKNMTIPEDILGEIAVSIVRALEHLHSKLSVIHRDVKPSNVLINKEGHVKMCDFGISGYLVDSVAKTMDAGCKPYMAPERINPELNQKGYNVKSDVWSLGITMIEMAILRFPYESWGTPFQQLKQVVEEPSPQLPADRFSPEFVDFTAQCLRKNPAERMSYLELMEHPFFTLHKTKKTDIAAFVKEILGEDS
UniProt O60337: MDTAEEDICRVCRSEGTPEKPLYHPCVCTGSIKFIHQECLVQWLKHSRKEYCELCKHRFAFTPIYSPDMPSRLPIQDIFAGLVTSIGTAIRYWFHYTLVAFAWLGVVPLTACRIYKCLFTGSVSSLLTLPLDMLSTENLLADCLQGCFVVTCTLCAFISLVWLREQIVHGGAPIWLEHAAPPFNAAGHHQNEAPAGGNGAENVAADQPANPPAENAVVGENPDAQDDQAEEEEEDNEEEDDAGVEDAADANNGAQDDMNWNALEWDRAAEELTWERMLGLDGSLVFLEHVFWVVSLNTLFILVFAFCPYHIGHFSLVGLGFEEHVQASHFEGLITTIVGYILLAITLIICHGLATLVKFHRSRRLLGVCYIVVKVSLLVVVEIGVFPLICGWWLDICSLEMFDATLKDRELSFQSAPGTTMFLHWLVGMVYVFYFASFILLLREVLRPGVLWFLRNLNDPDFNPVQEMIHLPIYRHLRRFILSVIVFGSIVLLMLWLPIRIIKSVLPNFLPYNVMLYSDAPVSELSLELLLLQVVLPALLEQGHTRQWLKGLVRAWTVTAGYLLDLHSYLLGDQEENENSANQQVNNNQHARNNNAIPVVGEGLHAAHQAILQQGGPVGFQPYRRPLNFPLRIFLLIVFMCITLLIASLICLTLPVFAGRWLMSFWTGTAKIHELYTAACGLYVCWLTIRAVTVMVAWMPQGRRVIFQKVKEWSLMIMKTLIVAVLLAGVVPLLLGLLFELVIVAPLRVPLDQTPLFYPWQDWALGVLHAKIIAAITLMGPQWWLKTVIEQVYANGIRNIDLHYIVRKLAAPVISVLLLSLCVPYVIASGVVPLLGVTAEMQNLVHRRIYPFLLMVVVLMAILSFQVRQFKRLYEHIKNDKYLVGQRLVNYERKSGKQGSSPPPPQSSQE
UniProt Q14766: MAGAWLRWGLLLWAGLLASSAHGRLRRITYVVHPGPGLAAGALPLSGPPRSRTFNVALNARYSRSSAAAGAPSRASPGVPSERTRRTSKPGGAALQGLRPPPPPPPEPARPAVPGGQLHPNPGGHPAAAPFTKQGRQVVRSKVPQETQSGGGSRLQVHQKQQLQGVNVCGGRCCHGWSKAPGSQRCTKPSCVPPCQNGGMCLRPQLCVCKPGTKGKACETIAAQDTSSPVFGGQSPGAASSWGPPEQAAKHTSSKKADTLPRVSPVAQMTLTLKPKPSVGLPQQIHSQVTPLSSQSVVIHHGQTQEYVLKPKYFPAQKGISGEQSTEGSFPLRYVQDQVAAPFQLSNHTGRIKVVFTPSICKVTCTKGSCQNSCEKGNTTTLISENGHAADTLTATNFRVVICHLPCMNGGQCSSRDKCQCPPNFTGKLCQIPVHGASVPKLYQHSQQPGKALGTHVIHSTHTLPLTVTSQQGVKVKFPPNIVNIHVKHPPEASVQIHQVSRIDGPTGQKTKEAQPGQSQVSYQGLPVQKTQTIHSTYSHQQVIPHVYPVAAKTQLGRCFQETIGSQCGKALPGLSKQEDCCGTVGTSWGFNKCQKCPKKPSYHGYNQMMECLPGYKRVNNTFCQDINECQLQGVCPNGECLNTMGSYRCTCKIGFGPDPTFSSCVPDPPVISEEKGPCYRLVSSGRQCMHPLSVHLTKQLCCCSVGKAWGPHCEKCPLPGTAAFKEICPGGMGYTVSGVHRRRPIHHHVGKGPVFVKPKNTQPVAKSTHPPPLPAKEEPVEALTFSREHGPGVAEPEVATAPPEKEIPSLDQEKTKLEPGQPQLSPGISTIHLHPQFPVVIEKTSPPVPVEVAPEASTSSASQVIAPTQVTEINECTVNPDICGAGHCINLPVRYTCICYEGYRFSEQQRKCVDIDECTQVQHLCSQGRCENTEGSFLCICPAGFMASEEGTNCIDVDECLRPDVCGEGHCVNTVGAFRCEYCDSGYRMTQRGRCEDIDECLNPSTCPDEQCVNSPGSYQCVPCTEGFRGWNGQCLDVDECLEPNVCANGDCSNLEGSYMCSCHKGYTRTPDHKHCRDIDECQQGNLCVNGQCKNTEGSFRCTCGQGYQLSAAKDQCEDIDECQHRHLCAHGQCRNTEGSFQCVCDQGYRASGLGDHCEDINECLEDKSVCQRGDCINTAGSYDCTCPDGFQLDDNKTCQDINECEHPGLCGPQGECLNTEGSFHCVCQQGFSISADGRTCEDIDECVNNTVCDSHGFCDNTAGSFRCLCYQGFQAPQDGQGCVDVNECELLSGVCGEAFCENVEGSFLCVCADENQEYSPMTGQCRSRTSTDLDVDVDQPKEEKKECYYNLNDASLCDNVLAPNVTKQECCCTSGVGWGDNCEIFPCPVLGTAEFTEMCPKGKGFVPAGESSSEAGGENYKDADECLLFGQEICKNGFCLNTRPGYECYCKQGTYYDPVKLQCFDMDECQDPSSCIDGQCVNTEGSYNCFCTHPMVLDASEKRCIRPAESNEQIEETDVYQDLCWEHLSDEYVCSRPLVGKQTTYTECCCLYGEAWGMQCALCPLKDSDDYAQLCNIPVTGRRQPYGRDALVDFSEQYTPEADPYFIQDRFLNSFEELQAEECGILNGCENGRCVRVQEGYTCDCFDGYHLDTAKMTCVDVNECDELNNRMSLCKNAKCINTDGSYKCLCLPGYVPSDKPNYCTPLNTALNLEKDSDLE
UniProt P43362: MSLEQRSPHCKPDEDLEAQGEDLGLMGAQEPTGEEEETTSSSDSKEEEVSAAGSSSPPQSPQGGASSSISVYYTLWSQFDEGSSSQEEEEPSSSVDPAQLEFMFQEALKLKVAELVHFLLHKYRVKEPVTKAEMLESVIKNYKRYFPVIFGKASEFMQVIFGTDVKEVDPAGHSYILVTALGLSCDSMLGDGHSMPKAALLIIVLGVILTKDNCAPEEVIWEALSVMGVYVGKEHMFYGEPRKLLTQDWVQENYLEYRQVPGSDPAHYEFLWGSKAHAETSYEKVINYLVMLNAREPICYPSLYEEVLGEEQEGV
UniProt Q9NTJ4: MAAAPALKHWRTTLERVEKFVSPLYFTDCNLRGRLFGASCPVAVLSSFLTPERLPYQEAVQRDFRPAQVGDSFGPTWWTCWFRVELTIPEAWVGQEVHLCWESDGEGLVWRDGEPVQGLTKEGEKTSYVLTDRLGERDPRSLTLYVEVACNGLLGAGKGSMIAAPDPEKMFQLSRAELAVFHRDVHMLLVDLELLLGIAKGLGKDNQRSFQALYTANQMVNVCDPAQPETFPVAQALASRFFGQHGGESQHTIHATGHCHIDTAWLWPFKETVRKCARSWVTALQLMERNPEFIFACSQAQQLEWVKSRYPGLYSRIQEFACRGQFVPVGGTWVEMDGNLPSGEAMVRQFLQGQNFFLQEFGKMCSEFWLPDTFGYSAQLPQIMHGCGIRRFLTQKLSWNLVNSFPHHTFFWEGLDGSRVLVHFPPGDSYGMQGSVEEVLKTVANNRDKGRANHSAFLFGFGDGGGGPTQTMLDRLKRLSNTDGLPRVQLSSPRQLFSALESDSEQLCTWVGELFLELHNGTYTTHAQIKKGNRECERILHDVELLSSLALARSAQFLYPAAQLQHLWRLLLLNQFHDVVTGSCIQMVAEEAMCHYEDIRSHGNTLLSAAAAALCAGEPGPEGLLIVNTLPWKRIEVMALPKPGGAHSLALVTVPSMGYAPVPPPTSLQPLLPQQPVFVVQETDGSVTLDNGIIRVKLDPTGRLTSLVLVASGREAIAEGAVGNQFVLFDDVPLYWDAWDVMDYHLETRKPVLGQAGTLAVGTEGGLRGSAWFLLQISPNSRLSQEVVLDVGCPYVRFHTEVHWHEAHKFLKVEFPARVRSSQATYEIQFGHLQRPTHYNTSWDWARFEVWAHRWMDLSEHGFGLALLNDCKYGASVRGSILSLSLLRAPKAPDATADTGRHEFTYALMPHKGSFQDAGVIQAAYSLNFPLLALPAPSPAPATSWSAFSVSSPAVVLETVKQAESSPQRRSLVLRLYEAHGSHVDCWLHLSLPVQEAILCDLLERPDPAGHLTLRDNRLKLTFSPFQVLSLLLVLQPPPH
UniProt Q3KQU3: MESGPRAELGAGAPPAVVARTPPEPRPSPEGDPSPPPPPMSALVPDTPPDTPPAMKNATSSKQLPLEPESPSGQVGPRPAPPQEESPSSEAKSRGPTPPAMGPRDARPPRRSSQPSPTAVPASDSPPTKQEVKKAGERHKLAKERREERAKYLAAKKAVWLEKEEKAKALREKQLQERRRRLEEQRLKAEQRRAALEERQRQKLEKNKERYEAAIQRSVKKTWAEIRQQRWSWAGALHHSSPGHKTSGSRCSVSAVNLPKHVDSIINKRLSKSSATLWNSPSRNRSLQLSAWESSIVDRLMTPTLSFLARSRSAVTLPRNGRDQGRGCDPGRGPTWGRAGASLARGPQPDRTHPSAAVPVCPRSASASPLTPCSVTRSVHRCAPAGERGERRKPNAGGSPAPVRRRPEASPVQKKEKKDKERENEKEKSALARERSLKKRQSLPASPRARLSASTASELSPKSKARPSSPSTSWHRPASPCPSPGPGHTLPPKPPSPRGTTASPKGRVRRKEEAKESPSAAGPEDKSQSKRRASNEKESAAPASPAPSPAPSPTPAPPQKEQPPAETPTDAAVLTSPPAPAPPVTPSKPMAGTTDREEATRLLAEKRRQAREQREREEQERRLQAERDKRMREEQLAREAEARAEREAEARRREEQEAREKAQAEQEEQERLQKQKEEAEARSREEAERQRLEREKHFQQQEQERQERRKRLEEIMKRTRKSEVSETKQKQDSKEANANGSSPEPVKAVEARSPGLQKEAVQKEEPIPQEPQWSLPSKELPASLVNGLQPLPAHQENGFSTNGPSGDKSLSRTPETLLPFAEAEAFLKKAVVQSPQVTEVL
UniProt Q13257, whole entry, looked up: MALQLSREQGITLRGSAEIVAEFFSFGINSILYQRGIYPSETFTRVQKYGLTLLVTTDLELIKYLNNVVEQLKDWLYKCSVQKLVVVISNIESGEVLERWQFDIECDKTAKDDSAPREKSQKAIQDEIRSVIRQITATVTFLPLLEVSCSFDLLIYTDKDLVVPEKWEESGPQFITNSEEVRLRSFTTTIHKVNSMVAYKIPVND
UniProt P49006: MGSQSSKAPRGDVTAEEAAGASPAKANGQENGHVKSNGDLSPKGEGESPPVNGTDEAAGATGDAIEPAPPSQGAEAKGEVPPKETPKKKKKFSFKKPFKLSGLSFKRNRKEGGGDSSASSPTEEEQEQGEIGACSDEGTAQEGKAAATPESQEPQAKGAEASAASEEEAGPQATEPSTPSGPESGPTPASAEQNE
UniProt Q9UPY8, whole entry, looked up: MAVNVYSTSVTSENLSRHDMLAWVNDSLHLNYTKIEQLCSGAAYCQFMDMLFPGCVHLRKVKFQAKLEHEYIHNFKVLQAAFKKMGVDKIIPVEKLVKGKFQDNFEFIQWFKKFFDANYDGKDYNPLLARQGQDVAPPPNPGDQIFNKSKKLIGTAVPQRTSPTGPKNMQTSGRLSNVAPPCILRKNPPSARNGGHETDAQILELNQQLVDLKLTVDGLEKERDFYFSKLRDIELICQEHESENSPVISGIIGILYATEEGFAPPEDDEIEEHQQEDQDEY

log2 fold change, inactive:
MAP4 (UniProt E7EVA0) 0.058
MAPK12 (UniProt P53778) -0.074
M6PR (UniProt P20645) -0.044
LRSAM1 (UniProt Q6UWE0) 0.083
LSM6 (UniProt P62312) -0.003
MAN1A2 (UniProt O60476) 0.026
MAP2K3 isoform 3 (UniProt P46734) 0.017
MARCHF6 (UniProt O60337) 0.033
LTBP1 isoform 4 (UniProt Q14766) 0.01
LRRFIP1 (UniProt Q32MZ4) 0.052
MAGEA9 (UniProt P43362) 0.074
MAK16 (UniProt Q9BXY0) 0.067
LYZ (UniProt P61626) -0.115
MAN2C1 isoform 4 (UniProt Q9NTJ4) 0.07
MAP7D1 (UniProt Q3KQU3) -0.093
MAD2L1 (UniProt Q13257) 0.056
MARCKSL1 (UniProt P49006) -0.039
LYPLA2 (UniProt O95372) 0.097
MADD isoform 2 (UniProt Q8WXG6) -0.043
MAPRE3 (UniProt Q9UPY8) 0.042
LSM14A isoform 2 (UniProt Q8ND56) 0
MAGEB2 (UniProt O15479) -0.041

Fetched one by one from the entries so far (two):
log2 fold change, inactive:
LYPLA2 (UniProt O95372) 0.097
MAPK12 (UniProt P53778) -0.074
